The list shows a part of the results.
compound: COc1ccc(Cn2ccc3ccc(C(=O)NO)cc32)cc1; experiment: dose-dependent thermal stabilisation call (2D-TPP, DLPTP, 10% FDR) (binary (1 = stabilised)); higher = stabilised by the compound; conditions: system: HL-60 intact cells; concentration range 0.04-10 µM

Sequences of proteins named here, by UniProt entry; tags and fusion partners are left off. A change or cut given only in a name is not applied to a line headed by its entry.
UniProt P49842: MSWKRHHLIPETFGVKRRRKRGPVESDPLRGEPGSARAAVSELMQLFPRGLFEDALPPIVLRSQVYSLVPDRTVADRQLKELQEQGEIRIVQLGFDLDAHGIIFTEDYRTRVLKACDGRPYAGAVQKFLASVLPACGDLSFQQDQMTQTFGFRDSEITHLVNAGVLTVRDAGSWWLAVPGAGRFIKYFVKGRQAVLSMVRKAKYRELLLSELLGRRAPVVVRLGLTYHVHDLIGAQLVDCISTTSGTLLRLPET
UniProt Q16637, whole entry: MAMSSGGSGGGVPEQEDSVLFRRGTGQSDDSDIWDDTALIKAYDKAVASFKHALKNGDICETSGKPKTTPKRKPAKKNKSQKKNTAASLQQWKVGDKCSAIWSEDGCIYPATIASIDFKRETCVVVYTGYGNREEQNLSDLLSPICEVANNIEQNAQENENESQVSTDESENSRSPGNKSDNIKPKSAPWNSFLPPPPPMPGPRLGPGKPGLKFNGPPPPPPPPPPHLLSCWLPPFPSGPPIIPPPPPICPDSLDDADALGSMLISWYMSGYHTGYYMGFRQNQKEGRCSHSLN
UniProt P08579, whole entry: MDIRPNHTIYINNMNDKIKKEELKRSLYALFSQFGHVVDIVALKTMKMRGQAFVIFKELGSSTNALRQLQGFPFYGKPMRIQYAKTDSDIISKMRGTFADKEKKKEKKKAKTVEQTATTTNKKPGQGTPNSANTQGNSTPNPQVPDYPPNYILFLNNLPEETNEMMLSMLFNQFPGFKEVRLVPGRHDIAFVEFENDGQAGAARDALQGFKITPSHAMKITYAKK
UniProt O60499: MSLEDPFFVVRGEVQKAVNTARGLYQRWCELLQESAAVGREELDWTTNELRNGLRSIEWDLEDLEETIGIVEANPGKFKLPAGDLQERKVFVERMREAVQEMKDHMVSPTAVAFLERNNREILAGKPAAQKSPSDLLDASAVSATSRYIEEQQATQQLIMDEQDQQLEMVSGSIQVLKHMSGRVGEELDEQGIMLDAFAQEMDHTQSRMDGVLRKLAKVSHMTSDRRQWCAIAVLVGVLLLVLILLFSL
UniProt Q9Y6A9: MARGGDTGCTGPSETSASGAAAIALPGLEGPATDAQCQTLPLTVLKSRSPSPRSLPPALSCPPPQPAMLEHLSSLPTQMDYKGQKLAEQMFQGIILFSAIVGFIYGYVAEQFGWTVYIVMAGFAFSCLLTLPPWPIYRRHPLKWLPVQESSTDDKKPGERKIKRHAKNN
UniProt P35270: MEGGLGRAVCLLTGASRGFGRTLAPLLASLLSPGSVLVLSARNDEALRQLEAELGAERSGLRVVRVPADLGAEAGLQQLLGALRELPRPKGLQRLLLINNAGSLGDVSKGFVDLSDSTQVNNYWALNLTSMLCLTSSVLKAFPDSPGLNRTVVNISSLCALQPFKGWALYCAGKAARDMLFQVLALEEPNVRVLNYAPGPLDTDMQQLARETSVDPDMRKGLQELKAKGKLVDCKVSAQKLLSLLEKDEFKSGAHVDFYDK
UniProt Q9UQ35: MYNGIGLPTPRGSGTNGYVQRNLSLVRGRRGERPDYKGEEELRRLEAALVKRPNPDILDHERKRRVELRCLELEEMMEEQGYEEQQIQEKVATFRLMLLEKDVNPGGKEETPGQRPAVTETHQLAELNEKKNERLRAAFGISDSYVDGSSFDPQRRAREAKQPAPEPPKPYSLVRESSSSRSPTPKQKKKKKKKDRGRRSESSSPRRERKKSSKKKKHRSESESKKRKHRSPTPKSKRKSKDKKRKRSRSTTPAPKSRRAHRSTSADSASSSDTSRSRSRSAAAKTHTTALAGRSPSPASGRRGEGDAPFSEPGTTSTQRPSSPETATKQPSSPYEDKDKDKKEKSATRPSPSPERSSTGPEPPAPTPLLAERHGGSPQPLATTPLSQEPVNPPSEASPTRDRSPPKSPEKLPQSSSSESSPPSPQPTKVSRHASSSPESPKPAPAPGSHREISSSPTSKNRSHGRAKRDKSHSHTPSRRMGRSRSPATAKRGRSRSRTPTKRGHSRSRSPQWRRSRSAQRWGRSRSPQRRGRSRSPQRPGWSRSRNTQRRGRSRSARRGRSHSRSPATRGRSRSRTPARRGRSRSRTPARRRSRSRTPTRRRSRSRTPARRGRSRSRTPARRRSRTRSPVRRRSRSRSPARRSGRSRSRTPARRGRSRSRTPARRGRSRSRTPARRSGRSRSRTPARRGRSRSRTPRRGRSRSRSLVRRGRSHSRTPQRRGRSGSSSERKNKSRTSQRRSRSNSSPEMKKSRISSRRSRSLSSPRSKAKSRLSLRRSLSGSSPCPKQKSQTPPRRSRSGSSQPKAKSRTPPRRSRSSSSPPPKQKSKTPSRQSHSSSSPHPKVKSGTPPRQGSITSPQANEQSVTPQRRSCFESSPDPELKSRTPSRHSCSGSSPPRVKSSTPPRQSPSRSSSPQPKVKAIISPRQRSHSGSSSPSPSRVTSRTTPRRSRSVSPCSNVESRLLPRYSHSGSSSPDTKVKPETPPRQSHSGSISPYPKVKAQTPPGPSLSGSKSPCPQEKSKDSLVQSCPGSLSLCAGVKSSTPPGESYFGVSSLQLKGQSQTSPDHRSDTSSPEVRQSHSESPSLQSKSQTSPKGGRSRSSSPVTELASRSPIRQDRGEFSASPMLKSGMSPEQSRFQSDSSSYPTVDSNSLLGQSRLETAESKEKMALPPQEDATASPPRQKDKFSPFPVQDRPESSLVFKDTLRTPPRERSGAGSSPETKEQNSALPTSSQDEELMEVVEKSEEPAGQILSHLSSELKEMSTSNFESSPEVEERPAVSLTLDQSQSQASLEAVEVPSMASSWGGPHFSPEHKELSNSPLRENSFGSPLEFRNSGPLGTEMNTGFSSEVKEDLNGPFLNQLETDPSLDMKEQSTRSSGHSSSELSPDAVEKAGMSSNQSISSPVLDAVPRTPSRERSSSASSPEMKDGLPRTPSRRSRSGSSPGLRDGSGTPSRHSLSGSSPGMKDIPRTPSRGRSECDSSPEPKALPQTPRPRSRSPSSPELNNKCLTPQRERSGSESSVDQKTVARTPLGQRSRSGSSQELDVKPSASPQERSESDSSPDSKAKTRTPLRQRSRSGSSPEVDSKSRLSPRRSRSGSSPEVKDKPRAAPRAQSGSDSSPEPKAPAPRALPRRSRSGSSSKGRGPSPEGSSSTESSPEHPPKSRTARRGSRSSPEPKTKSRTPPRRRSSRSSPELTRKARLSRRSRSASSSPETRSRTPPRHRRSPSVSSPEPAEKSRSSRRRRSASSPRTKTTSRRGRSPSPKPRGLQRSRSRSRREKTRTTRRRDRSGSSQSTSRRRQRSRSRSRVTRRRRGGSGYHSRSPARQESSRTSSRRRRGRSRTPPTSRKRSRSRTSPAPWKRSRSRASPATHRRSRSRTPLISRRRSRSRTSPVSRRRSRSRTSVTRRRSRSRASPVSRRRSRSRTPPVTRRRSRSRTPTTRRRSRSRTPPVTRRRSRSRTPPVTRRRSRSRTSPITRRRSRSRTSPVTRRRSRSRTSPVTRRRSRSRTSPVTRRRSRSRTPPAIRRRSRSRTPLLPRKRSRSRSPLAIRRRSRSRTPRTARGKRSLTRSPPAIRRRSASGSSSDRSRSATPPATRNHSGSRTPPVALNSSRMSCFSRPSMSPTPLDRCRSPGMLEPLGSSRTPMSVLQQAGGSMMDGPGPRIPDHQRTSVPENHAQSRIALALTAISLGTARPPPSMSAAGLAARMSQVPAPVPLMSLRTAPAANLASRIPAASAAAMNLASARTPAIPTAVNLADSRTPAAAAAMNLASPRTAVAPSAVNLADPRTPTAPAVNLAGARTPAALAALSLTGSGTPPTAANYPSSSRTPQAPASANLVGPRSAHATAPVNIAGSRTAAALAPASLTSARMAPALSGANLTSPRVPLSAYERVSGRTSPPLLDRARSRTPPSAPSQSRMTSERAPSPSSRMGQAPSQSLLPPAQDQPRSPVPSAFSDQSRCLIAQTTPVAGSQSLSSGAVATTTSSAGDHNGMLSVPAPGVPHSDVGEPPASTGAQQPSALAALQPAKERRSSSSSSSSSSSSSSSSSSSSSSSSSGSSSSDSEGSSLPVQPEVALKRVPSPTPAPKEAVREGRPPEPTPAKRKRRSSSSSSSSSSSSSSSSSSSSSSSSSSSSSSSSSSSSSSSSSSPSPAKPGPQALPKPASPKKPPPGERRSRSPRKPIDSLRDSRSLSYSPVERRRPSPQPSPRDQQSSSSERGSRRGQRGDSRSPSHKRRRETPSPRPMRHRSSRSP
UniProt Q8NEF9: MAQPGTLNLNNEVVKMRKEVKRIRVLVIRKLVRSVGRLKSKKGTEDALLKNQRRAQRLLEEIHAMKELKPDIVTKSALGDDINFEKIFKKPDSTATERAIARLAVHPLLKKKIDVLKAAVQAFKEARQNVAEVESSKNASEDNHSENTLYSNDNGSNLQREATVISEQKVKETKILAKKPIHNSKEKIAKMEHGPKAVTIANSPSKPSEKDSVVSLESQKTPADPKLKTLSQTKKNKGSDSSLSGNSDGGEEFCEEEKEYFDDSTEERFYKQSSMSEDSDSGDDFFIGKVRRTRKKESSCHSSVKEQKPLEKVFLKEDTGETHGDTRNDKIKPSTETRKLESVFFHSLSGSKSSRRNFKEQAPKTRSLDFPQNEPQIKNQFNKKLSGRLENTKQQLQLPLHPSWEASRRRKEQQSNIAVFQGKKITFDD
UniProt Q5MIZ7: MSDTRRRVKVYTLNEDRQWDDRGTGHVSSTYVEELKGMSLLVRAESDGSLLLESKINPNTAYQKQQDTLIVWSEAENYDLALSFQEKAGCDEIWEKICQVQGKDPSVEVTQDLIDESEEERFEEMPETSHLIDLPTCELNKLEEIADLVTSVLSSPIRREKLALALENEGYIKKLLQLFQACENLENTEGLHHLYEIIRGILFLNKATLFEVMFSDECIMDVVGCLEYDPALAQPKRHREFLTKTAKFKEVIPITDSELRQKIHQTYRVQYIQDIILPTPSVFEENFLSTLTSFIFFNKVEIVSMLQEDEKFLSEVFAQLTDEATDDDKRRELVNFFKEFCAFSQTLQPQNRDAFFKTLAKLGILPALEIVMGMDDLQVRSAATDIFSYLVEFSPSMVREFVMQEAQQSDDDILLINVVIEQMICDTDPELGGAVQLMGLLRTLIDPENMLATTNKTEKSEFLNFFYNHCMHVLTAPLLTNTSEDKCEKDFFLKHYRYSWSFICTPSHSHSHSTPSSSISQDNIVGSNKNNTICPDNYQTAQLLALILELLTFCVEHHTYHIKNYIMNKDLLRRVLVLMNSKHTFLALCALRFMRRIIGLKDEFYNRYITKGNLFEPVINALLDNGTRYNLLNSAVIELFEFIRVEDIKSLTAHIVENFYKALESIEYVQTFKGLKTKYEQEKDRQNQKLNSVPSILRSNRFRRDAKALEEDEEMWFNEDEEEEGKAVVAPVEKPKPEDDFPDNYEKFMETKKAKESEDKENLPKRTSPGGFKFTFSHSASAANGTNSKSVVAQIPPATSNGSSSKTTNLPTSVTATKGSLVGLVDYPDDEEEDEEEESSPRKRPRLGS
UniProt Q9UQ90: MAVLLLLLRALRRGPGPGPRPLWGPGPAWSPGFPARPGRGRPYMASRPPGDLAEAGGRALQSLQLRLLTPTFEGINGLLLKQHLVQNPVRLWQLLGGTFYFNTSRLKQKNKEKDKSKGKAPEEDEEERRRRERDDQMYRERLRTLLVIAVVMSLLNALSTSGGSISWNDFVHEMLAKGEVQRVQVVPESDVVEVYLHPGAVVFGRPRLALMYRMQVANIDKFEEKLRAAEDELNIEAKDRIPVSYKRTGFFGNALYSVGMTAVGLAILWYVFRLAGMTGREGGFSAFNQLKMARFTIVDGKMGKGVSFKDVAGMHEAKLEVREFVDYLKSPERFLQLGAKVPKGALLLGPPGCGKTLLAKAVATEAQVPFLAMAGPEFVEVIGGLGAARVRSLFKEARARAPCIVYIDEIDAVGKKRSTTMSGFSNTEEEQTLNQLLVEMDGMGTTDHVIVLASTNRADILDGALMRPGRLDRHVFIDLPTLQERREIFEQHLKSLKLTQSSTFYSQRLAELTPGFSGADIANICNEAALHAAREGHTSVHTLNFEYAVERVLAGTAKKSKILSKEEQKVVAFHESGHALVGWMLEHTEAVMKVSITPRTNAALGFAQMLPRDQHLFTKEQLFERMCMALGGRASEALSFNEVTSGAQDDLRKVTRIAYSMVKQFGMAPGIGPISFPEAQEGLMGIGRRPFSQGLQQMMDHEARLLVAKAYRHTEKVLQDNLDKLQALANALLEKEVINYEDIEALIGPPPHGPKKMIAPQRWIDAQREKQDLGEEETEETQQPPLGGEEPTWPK
UniProt Q9NZD8: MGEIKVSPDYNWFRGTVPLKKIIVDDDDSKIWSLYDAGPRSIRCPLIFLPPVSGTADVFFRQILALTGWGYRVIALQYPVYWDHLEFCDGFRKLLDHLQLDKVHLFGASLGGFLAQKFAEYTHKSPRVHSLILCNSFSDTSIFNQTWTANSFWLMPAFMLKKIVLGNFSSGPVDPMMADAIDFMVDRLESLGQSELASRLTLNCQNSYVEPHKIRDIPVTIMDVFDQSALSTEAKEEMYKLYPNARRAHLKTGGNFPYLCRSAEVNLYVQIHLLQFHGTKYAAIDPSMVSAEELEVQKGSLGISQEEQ

| Target | dose-dependent thermal stabilisation call |
| --- | --- |
| SMARCA4 (UniProt P51532) | inactive: 0 |
| SMARCC1 (UniProt Q92922) | inactive: 0 |
| SNRK (UniProt Q9NRH2) | inactive: 0 |
| SRCAP (UniProt Q6ZRS2) | inactive: 0 |
| STK19 (UniProt P49842) | inactive: 0 |
| STK11IP (UniProt Q8N1F8) | inactive: 0 |
| SNX14 (UniProt Q9Y5W7) | inactive: 0 |
| STRBP (UniProt Q96SI9) | inactive: 0 |
| SMN1 (UniProt Q16637) | inactive: 0 |
| SNRPB2 (UniProt P08579) | inactive: 0 |
| TAF5 (UniProt Q15542) | inactive: 0 |
| STX10 (UniProt O60499) | inactive: 0 |
| SNRPC (UniProt P09234) | inactive: 0 |
| SP4 (UniProt Q02446) | inactive: 0 |
| ST6GAL1 (UniProt P15907) | inactive: 0 |
| SPCS1 (UniProt Q9Y6A9) | inactive: 0 |
| SPR (UniProt P35270) | active: 1 |
| SPPL2B (UniProt Q8TCT7) | inactive: 0 |
| SPPL2A (UniProt Q8TCT8) | inactive: 0 |

No new results follow: an excerpt of the list.

| Target | dose-dependent thermal stabilisation call |
| --- | --- |
| SP4 (UniProt Q02446) | inactive: 0 |
| ST6GAL1 (UniProt P15907) | inactive: 0 |

Remaining list, next part:

| Target | dose-dependent thermal stabilisation call |
| --- | --- |
| SRRM2 (UniProt Q9UQ35) | inactive: 0 |
| SR140 (UniProt O15042) | inactive: 0 |
| SOD1 (UniProt P00441) | inactive: 0 |
| SQLE (UniProt Q14534) | inactive: 0 |
| SRGN (UniProt P10124) | active: 1 |
| SNX1 (UniProt Q13596) | inactive: 0 |
| SRFBP1 (UniProt Q8NEF9) | inactive: 0 |
| TACC1 (UniProt O75410) | inactive: 0 |
| SPRY1 (UniProt O43609) | inactive: 0 |
| SRD5A3 (UniProt Q9H8P0) | inactive: 0 |
| SUMF1 (UniProt Q8NBK3) | inactive: 0 |
| SMEK2 (UniProt Q5MIZ7) | inactive: 0 |
| SMG5 (UniProt Q9UPR3) | inactive: 0 |
| STAG1 (UniProt Q8WVM7) | inactive: 0 |
| SPG7 (UniProt Q9UQ90) | inactive: 0 |
| STXBP5 (UniProt Q5T5C0) | inactive: 0 |
| SLC9A7 (UniProt Q96T83) | inactive: 0 |
| SPG21 (UniProt Q9NZD8) | inactive: 0 |

Reference: the supplement of paper PMC7666118
